Laboratory results: PubChem BioAssay AID1259405 (NCATS, 2018)
Purpose: 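Silenced genes that increase secreted GFP made by CHO cells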 (primary screen). System: Chinese hamster CHO-K1 ovary cells with stable secreted eGFP expression. Reagent: single siRNA against mouse genes, 0.8 pmol siRNA per well (2 µl of 400 nM stock). Time to read-out: 3 days. Detection: 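Percent of the per-plate non-targeting control median for intracellular GFP per well by laser scanning cytometry and for cell viability by ATP luminescence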. Direction: GFP, % of control: higher = more GFP per well, higher productivity; viability (ATP), % of control: higher = more viable cells (more ATP). Hit rule: 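Called active when intracellular GFP, relative to negative control, is at or above 120%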.
Shown is a random part of about 50,000 deposited reagents. About 4,000 of all reagents (8%) were called active. 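Mouse siRNA library applied to hamster cells; one well for each siRNA.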 Reagents against one gene are numbered here.

gene knocked down | reagent no. | GFP, % of control | viability (ATP), % of control | Call
Cd209e (GeneID 170780) | 1 | 81.6 | 94.2 | inactive
Cd209e (GeneID 170780) | 2 | 75.8 | 86.6 | inactive
Cd209e (GeneID 170780) | 3 | 108 | 89 | inactive
Sytl3 (GeneID 83672) | 1 | 42.2 | 41.2 | inactive
Sytl3 (GeneID 83672) | 2 | 77.8 | 76.8 | inactive
Sytl3 (GeneID 83672) | 3 | 58.9 | 73 | inactive
Rwdd3 (GeneID 66568) | 1 | 93.2 | 89.5 | inactive
Rwdd3 (GeneID 66568) | 2 | 82.3 | 63.3 | inactive
Rwdd3 (GeneID 66568) | 3 | 154 | 78.1 | active
Rwdd3 (GeneID 66568) | 4 | 71 | 51.1 | inactive
Rwdd3 (GeneID 66568) | 5 | 62.6 | 79.2 | inactive
Rwdd3 (GeneID 66568) | 6 | 81.1 | 86.4 | inactive
Ca13 (GeneID 71934) | 1 | 35.9 | 39.3 | inactive
Ca13 (GeneID 71934) | 2 | 91.2 | 72.5 | inactive
Rps27l (GeneID 67941) | 1 | 41.3 | 53.1 | inactive
Rps27l (GeneID 67941) | 2 | 86.5 | 79.3 | inactive
Rps27l (GeneID 67941) | 3 | 67.8 | 65.5 | inactive
Timd4 (GeneID 276891) | 1 | 111 | 87.7 | inactive
Timd4 (GeneID 276891) | 2 | 64.7 | 71.1 | inactive
Timd4 (GeneID 276891) | 3 | 26.1 | 46.9 | inactive
Gab2 (GeneID 14389) | 1 | 73.3 | 56.9 | inactive
Gab2 (GeneID 14389) | 2 | 75.4 | 98.8 | inactive
Gab2 (GeneID 14389) | 3 | 63 | 87 | inactive
Catsperb (GeneID 271036) | 1 | 80.8 | 93.6 | inactive
Catsperb (GeneID 271036) | 2 | 80.9 | 76.4 | inactive
Catsperb (GeneID 271036) | 3 | 92.8 | 107 | inactive
Pla2g4b (GeneID 211429) | 1 | 99.7 | 68.5 | inactive
Pla2g4b (GeneID 211429) | 2 | 131 | 103 | active
Pla2g4b (GeneID 211429) | 3 | 93.9 | 104 | inactive
Atmin (GeneID 234776) | 1 | 107 | 86.2 | inactive
Atmin (GeneID 234776) | 2 | 73.8 | 77.6 | inactive
Atmin (GeneID 234776) | 3 | 72.1 | 72.7 | inactive
Ube4a (GeneID 140630) | 1 | 14.9 | 56.3 | inactive
Ube4a (GeneID 140630) | 2 | 96.4 | 99.6 | inactive
Ube4a (GeneID 140630) | 3 | 64.8 | 63 | inactive
Ddx28 (GeneID 71986) | 1 | 110 | 70.9 | inactive
Ddx28 (GeneID 71986) | 2 | 76.1 | 55 | inactive
Ddx28 (GeneID 71986) | 3 | 92 | 82.3 | inactive
Cwc22 (GeneID 80744) | 1 | 85.2 | 60.1 | inactive
Cwc22 (GeneID 80744) | 2 | 82.9 | 67 | inactive
Cwc22 (GeneID 80744) | 3 | 107 | 53.7 | inactive
Pramel4 (GeneID 347710) | 1 | 101 | 88.3 | inactive
Pramel4 (GeneID 347710) | 2 | 97.9 | 77.5 | inactive
Pramel4 (GeneID 347710) | 3 | 89.1 | 93.9 | inactive
Or4n4 (GeneID 258659) | 1 | 136 | 81.5 | active
Or4n4 (GeneID 258659) | 2 | 81.7 | 98.7 | inactive
Or4n4 (GeneID 258659) | 3 | 103 | 78.5 | inactive
Rgl3 (GeneID 71746) | 1 | 71.9 | 59.3 | inactive
Rgl3 (GeneID 71746) | 2 | 68.7 | 105 | inactive
Rgl3 (GeneID 71746) | 3 | 62.1 | 60.7 | inactive
Wwc1 (GeneID 211652) | 1 | 74.7 | 74.6 | inactive
Wwc1 (GeneID 211652) | 2 | 90.5 | 76.5 | inactive
Wwc1 (GeneID 211652) | 3 | 135 | 120 | active
Cfap95 (GeneID 67483) | 1 | 74.3 | 87.2 | inactive
Cfap95 (GeneID 67483) | 2 | 78.4 | 87 | inactive
Cfap95 (GeneID 67483) | 3 | 42.7 | 71.1 | inactive
Emilin1 (GeneID 100952) | 1 | 69.8 | 114 | inactive
Emilin1 (GeneID 100952) | 2 | 78 | 104 | inactive

An excerpt of the results above:
gene knocked down | reagent no. | GFP, % of control | viability (ATP), % of control | Call
Pla2g4b (GeneID 211429) | 1 | 99.7 | 68.5 | inactive
Pla2g4b (GeneID 211429) | 2 | 131 | 103 | active
Pla2g4b (GeneID 211429) | 3 | 93.9 | 104 | inactive
Atmin (GeneID 234776) | 1 | 107 | 86.2 | inactive
Atmin (GeneID 234776) | 2 | 73.8 | 77.6 | inactive
Atmin (GeneID 234776) | 3 | 72.1 | 72.7 | inactive
Ube4a (GeneID 140630) | 1 | 14.9 | 56.3 | inactive
Ube4a (GeneID 140630) | 2 | 96.4 | 99.6 | inactive
Ube4a (GeneID 140630) | 3 | 64.8 | 63 | inactive
